Where a name gives a salt, the structure may show the parent alone. Some of the results follow. Most values lie at the level of the controls, where differences are scatter.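 Reh is a human leukemia cell line; the read-out is the median γH2AX antibody signal in S-phase cells by flow cytometry, with the score counting standard deviations from the median difference of each paired set of plates. Scores above 2.5 were called candidate hits, while scores below -2 mark compounds that lowered the MK1775-induced damage.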

The test system of this test is Reh. The experiment in a line: Z' of S-phase gammaH2AX difference (drug + MK1775 minus drug alone) (Z-score); higher = stronger synergistic S-phase DNA damage with MK1775. The following applies: MK1775 concentration 400 nM; first compound 10 µM; 4 h.
As for `CCN(CC)C(=O)c1ccc(O)c(OC)c1` [Vanillic acid diethylamide] + C=CCn1c(=O)c2cnc(Nc3ccc(N4CCN(C)CC4)cc3)nc2n1-c1cccc(C(C)(C)O)n1 [MK1775], the “Z' of S-phase gammaH2AX difference (Z-score)” value was inactive: -0.274.
For the compound `NC1(C(=O)O)CC1` [1-Aminocyclopropanecarboxylic acid hydrochloride] + C=CCn1c(=O)c2cnc(Nc3ccc(N4CCN(C)CC4)cc3)nc2n1-c1cccc(C(C)(C)O)n1 [MK1775], the “Z' of S-phase gammaH2AX difference (Z-score)” value was inactive: 0.
Take `O=C(O)CCc1ccc(NCc2cccc(Oc3ccccc3)c2)cc1` + C=CCn1c(=O)c2cnc(Nc3ccc(N4CCN(C)CC4)cc3)nc2n1-c1cccc(C(C)(C)O)n1 [MK1775]: the “Z' of S-phase gammaH2AX difference (Z-score)” value was inactive: 0.199.
For the compound `CSC(=N)N` [S-Methylisothiourea hemisulfate] + C=CCn1c(=O)c2cnc(Nc3ccc(N4CCN(C)CC4)cc3)nc2n1-c1cccc(C(C)(C)O)n1 [MK1775], the “Z' of S-phase gammaH2AX difference (Z-score)” value is inactive: 1.22.
In the case of `O=C1NCC2(CCN(CCc3ccccc3)CC2)O1` [Fenspiride hydrochloride] + C=CCn1c(=O)c2cnc(Nc3ccc(N4CCN(C)CC4)cc3)nc2n1-c1cccc(C(C)(C)O)n1 [MK1775], the “Z' of S-phase gammaH2AX difference (Z-score)” value was inactive: 0.342.
The value for `Cl.N[C@@H](CCC(=O)O)C(=O)O` [L-Glutamic acid hydrochloride] + C=CCn1c(=O)c2cnc(Nc3ccc(N4CCN(C)CC4)cc3)nc2n1-c1cccc(C(C)(C)O)n1 [MK1775] was inactive: -0.00729; that for `Cc1nc(-c2ccc(OCC(C)C)c(C#N)c2)sc1C(=O)O` [Febuxostat (Uloric)] + C=CCn1c(=O)c2cnc(Nc3ccc(N4CCN(C)CC4)cc3)nc2n1-c1cccc(C(C)(C)O)n1 [MK1775] was inactive: 0.106; that for `Cc1nc(Nc2ncc(C(=O)Nc3c(C)cccc3Cl)s2)cc(N2CCN(CCO)CC2)n1` + C=CCn1c(=O)c2cnc(Nc3ccc(N4CCN(C)CC4)cc3)nc2n1-c1cccc(C(C)(C)O)n1 [MK1775] was active: 7.22.
The value for `CCN1CCN(Cc2ccc(-c3cc4c(N[C@H](C)c5ccccc5)ncnc4[nH]3)cc2)CC1` + C=CCn1c(=O)c2cnc(Nc3ccc(N4CCN(C)CC4)cc3)nc2n1-c1cccc(C(C)(C)O)n1 [MK1775] was inactive: 0.0525; that for `CC(C)c1ccc2c(c1)c(SC(C)(C)C)c(CC(C)(C)C(=O)O)n2Cc1ccc(Cl)cc1` + C=CCn1c(=O)c2cnc(Nc3ccc(N4CCN(C)CC4)cc3)nc2n1-c1cccc(C(C)(C)O)n1 [MK1775] was inactive: 0.902; that for `C=C1/C(=C\C=C2/CCC[C@]3(C)[C@@H]([C@H](C)/C=C/[C@H](C)C(C)C)CC[C@@H]23)C[C@@H](O)C[C@@H]1O` [Doxercalciferol (Hectorol)] + C=CCn1c(=O)c2cnc(Nc3ccc(N4CCN(C)CC4)cc3)nc2n1-c1cccc(C(C)(C)O)n1 [MK1775] was inactive: 0.385.
Turning to `CC(C)(C)c1ccc(C(O)CCCN2CCC(C(O)(c3ccccc3)c3ccccc3)CC2)cc1` (stereo not drawn) [Terfenadine] + C=CCn1c(=O)c2cnc(Nc3ccc(N4CCN(C)CC4)cc3)nc2n1-c1cccc(C(C)(C)O)n1 [MK1775], the “Z' of S-phase gammaH2AX difference (Z-score)” value is inactive: -0.893.
For the compound `N[C@@H](Cc1ccc(O)c(I)c1)C(=O)O` [3-Iodo-L-tyrosine] + C=CCn1c(=O)c2cnc(Nc3ccc(N4CCN(C)CC4)cc3)nc2n1-c1cccc(C(C)(C)O)n1 [MK1775], the “Z' of S-phase gammaH2AX difference (Z-score)” value was inactive: -0.0802.
The result for `Nc1ccn([C@@H]2O[C@H](CO)[C@@H](O)[C@@H]2O)c(=O)n1` [Cytarabine] + C=CCn1c(=O)c2cnc(Nc3ccc(N4CCN(C)CC4)cc3)nc2n1-c1cccc(C(C)(C)O)n1 [MK1775] reads inactive: -2.3; that for `Nc1ccn([C@@H]2O[C@H](CO)[C@@H](O)[C@@H]2O)c(=O)n1` [Cytosine-1-beta-D-arabinofuranoside hydrochloride] + C=CCn1c(=O)c2cnc(Nc3ccc(N4CCN(C)CC4)cc3)nc2n1-c1cccc(C(C)(C)O)n1 [MK1775], inactive: 1.99.
The result for `Nc1ncnc2c1ncn2C1CCCO1` (stereo not drawn) + C=CCn1c(=O)c2cnc(Nc3ccc(N4CCN(C)CC4)cc3)nc2n1-c1cccc(C(C)(C)O)n1 [MK1775] reads inactive: -1.57; that for `Cc1[nH]c2ccccc2c1CCNCc1ccc(/C=C/C(=O)NO)cc1` [Panobinostat] + C=CCn1c(=O)c2cnc(Nc3ccc(N4CCN(C)CC4)cc3)nc2n1-c1cccc(C(C)(C)O)n1 [MK1775], inactive: -4.58; that for `CC(C)Cn1c(=O)n(C)c(=O)c2[nH]cnc21` [3-Isobutyl-1-methylxanthine] + C=CCn1c(=O)c2cnc(Nc3ccc(N4CCN(C)CC4)cc3)nc2n1-c1cccc(C(C)(C)O)n1 [MK1775], inactive: -0.27.
The value for `CCCCOc1cc(CC2CNC(=O)N2)ccc1OC` (stereo not drawn) + C=CCn1c(=O)c2cnc(Nc3ccc(N4CCN(C)CC4)cc3)nc2n1-c1cccc(C(C)(C)O)n1 [MK1775] was inactive: -0.0134.
Take `Nc1ccc(C(=O)Nc2cccc(-c3nc(N4CCOCC4)c4oc5ncccc5c4n3)c2)cn1` + C=CCn1c(=O)c2cnc(Nc3ccc(N4CCN(C)CC4)cc3)nc2n1-c1cccc(C(C)(C)O)n1 [MK1775]: the “Z' of S-phase gammaH2AX difference (Z-score)” value was inactive: -0.431.
The value for `CN(C)CCCN1c2ccccc2Sc2ccc(Cl)cc21` [Chlorpromazine hydrochloride] + C=CCn1c(=O)c2cnc(Nc3ccc(N4CCN(C)CC4)cc3)nc2n1-c1cccc(C(C)(C)O)n1 [MK1775] was inactive: 0.685; that for `CC(Cc1ccc(O)c(O)c1)(NN)C(=O)O` (stereo not drawn) [S-(-)-Carbidopa] + C=CCn1c(=O)c2cnc(Nc3ccc(N4CCN(C)CC4)cc3)nc2n1-c1cccc(C(C)(C)O)n1 [MK1775] was inactive: 0.144; that for `CN(C)c1ccc(O)c2c1C[C@H]1C[C@H]3[C@H](N(C)C)C(O)=C(C(N)=O)C(=O)[C@@]3(O)C(O)=C1C2=O` [Minocycline hydrochloride] + C=CCn1c(=O)c2cnc(Nc3ccc(N4CCN(C)CC4)cc3)nc2n1-c1cccc(C(C)(C)O)n1 [MK1775] was inactive: -0.0873.

Values taken from the supplement of paper PMC5355238.
